These are yes or no findings as the source states them, for the method shown. Binding seen in cells or lysates may run through a third protein. These calls come from enrichment with a bait or labelling near it, and not all partners need be listed.

The chains behind the UniProt entries cited, without tags or fusion partners.
UniProt P21439: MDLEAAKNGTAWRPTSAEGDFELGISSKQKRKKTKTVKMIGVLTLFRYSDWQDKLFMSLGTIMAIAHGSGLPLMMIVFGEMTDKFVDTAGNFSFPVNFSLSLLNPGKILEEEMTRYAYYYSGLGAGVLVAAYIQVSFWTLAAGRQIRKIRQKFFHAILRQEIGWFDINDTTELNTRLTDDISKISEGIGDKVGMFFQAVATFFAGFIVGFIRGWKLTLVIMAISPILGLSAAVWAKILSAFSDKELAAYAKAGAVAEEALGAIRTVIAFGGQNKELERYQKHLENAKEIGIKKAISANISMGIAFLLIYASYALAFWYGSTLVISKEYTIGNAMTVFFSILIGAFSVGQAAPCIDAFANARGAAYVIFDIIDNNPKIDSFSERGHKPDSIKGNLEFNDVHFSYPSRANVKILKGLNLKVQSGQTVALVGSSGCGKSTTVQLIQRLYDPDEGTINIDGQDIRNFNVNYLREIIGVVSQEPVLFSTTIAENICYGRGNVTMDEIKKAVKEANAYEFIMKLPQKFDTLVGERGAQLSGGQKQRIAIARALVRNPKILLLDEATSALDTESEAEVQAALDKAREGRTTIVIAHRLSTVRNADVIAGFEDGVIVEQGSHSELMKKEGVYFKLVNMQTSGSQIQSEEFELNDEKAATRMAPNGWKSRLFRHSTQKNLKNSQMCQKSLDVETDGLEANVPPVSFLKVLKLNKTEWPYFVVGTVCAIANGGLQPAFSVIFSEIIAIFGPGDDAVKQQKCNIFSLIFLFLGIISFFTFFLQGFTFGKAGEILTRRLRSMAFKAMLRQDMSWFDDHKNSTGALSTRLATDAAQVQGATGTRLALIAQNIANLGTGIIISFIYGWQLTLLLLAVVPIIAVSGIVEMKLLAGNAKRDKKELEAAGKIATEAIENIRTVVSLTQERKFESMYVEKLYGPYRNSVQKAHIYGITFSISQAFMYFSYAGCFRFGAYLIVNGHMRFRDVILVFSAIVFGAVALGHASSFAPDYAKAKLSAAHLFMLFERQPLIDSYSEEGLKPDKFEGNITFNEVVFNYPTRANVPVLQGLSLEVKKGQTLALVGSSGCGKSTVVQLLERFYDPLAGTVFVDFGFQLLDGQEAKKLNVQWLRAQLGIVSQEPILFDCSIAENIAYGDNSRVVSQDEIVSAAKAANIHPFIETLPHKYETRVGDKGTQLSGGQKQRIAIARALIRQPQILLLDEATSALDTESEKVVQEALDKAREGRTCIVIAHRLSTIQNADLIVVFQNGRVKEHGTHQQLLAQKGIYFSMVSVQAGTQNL
UniProt P61026: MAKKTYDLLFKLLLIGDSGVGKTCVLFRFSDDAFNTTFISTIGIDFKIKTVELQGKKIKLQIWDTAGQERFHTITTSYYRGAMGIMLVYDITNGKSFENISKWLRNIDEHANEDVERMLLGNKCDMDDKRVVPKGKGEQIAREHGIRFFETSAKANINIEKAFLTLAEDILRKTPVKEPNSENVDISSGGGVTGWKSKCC

The assay deals with ABCB4 (ATP-binding cassette subfamily B member 4) (human (endogenous in primary human hepatocytes)) (UniProt P21439). The experiment in a line: affinity purification with mass spectrometry; ABCB4 immunoprecipitated (anti-ABCB4 P3II-26, Protein A-Sepharose) from lysates of primary human hepatocytes and ABCB4-expressing HEK cells; 20 mM Tris-HCl pH 8.0, 137 mM NaCl, 2 mM EDTA, 1% Triton X-100, 4 °C; controls: unspecific IgG2b and non-ABCB4-expressing HEK cells; LC-MS-MS.

For the molecule RAB10 (from UniProt P61026 1-200), the binding entry was “binds”.

B1: RAB13 (protein, UniProt P51153 1-203)
chain: MAKAYDHLFKLLLIGDSGVGKTCLIIRFAEDNFNNTYISTIGIDFKIRTVDIEGKKIKLQVWDTAGQERFKTITTAYYRGAMGIILVYDITDEKSFENIQNWMKSIKENASAGVERLLLGNKCDMEAKRKVQKEQADKLAREHGIRFFETSAKSSMNVDEAFSSLARDILLKSGGRRSGNGNKPPSTDLKTCDKKNTNKCSLG
Regarding B1, the binding entry is “binds”.

For the origin of these results see article PMC8268348.
